A short description of this data set: general procedure: solution-phase peptide synthesis; N-hydroxysuccinimide/dicyclohexylcarbodiimide; isobutyl chloroformate/N-methylmo.

N-(Z-Asp-Glu-Val-Asp)-aminoluciferin: the step yield (late stage modification step) is on record as 62%. Take “N-[Z-Asp(OtBu)-Glu(OtBu)-Val-Asp(OtBu)]-aminoluciferin”: the step yield (late stage modification step) was 41%. Consider Z-Asp(OtBu)-Glu(OtBu)-Val-Asp(OtBu)-OH, for which, under “coupling step”, the step yield was 56%.
